Laboratory results reported in publication PMC12145424, “Structural insights into tRNA recognition of the human FTSJ1-THADA complex” (Communications Biology, 2025).
These are yes or no findings as the source states them, for the method shown. In cells and extracts the contact can be indirect. A result given as binding can be weak or reduced; the word gives no strength.

Chains of the proteins cited; added tags and fusions are not shown. Lines headed by an entry give the natural chain unless they say otherwise; changes in a name come on top.
UniProt Q6YHU6: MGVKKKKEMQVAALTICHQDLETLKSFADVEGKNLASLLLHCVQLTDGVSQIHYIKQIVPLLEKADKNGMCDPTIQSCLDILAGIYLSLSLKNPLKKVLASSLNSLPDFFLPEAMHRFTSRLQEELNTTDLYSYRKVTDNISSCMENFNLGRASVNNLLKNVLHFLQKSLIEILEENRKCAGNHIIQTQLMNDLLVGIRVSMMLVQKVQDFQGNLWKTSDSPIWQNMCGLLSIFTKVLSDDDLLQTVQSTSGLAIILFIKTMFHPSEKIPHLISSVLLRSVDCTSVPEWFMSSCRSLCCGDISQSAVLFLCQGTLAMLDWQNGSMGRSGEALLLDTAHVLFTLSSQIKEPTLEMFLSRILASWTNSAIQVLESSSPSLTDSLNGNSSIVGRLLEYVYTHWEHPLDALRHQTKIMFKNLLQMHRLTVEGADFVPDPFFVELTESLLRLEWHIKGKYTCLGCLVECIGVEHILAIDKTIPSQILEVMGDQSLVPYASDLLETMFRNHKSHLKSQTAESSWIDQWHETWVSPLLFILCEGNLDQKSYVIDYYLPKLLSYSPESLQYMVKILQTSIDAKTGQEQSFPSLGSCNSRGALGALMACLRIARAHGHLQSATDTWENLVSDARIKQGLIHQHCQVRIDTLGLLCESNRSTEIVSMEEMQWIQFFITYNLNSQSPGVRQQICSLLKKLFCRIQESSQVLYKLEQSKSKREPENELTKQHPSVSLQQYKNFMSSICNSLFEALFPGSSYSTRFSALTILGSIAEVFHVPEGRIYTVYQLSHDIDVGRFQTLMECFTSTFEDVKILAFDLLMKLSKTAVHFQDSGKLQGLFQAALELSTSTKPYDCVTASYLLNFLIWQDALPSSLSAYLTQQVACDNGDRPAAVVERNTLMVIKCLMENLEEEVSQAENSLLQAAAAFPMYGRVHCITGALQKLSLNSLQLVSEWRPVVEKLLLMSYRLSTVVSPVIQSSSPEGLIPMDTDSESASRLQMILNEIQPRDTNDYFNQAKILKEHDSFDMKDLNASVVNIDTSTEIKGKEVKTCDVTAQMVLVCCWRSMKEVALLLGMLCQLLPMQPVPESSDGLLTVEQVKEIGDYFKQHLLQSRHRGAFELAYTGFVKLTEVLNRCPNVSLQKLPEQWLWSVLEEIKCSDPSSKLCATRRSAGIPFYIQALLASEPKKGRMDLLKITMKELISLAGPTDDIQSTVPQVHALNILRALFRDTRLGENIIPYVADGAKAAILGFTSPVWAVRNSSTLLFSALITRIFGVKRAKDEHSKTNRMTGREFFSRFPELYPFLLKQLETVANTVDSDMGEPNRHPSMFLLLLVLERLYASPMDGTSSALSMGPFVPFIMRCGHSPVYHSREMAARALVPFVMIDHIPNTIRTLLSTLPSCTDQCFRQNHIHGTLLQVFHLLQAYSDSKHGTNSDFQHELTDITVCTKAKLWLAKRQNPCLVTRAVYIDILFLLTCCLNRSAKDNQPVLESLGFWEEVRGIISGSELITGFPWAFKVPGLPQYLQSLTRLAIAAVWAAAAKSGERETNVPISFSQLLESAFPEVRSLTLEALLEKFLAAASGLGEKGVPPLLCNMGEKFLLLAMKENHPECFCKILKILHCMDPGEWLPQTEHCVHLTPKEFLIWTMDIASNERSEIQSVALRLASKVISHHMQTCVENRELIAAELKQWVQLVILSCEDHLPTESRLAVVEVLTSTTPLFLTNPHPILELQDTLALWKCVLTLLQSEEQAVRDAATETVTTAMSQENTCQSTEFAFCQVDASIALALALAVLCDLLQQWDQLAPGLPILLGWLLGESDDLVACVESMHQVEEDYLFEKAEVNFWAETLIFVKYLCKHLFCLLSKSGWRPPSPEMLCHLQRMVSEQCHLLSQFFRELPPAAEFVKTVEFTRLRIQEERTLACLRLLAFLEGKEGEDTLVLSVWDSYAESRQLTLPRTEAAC

Legend:
Test in all cases: co-IP; 293FT cells transfected with FLAG-tagged THADA; lysate in 20 mM Tris-HCl pH 7.4, 150 mM NaCl, 1 mM EDTA, 1 mM EGTA, 0.01% Triton X-100; anti-FLAG M2 affinity gel; blot with anti-FLAG and anti-FTSJ1
[1] = biological target: FLAG-tagged THADA mutant at Arg199 (human) (UniProt Q6YHU6)
[2] = biological target: FLAG-tagged THADA mutant at Gln680 (human) (UniProt Q6YHU6)
[3] = biological target: FLAG-tagged THADA mutant at Thr798 (human) (UniProt Q6YHU6)
[4] = biological target: FLAG-tagged THADA mutant at Tyr843 (human) (UniProt Q6YHU6)

Measured: binding

B1: Human FTSJ1 (FLAG-tagged, co-expressed with THADA) (enzyme)
chain: MGRTSKDKRDVYYRLAKENGWRARSAFKLLQLDKEFQLFQGVTRAVDLCAAPGSWSQVLSQKIGGQGSGHVVAVDLQAMAPLPGVVQIQGDITQLSTAKEIIQHFKGCPADLVVCDGAPDVTGLHDVDEYMQAQLLLAALNIATHVLKPGGCFVAKIFRGRDVTLLYSQLQVFFSSVLCAKPRSSRNSSIEAFAVCQGYDPPEGFIPDLSKPLLDHSYDPDFNQLDGPTRIIVPFVTCGDLSSYDSDRSYPLDLEGGSEYKYTPPTQPPISPPYQEACTLKRKGQLAKEIRPQDCPISRVDTFPQPLAAPQCHTLLAPEMEDNEMSCSP
notes: FTSJ1, human; gene PCR-amplified and cloned into a modified pcDNA3.4 vector; no TEV cleavage step is described in the purification; also called Trm7 (yeast name); not shown: FLAG, N-terminal, kept
binds: all assays above
